In PubChem BioAssay AID1347423 (Functional Genomics Laboratory (NCATS/FGL), 2020) one finds z-score data, which are given here for 66 sequences.

About 210 (0.4%) of roughly 52,000 sequences were called active.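 How the source made its calls: active means gene whose silencing raises cell survival under the drug, median off-target-corrected z-score across its silencing RNAs 2 or more; inactive means the rest.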 This is one part of the list.

The test in a line: Resistance to Poly (ADP-Ribose) Polymerase inhibitor: Gene Identification via Genome-wide siRNA Screen. As to conditions: mouse BRCA2 R2336H ES cells, olaparib, CellTiter-Glo viability; stronger effect = higher value. The method, boiled down: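 Mouse BRCA2 R2336H ES cells were reverse-transfected with siRNA (20 nM final), treated at 48 h with 500 nM olaparib, and read by CellTiter-Glo after 72 h. Scores: MAD-based z per siRNA, median per gene, seed off-target correction.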
Regarding CCAACGAACCUUAUUUCUUTT against Lman2, the z-score is inactive: 0.806.

For the sequence GCUAUUCUUUUUCUGCUUUTT against Olfr893, the z-score is inactive: -0.244.

In the case of “GCUGUUUUGAGGAGCCUUCTT against D12Ertd748e”, the z-score is inactive: -2.79.

As to GGCUGUGCAAGCAAAACCUTT against Mad1l1, the z-score is inactive: 0.271.

As to GGUGCAGAACAAUUCGGUUTT against Tnfsf4, the z-score was inactive: 0.597.

“GGUGAAAACCUCAUAAAUGTT against A630033E08Rik”: the z-score was inactive: 1.15.

For the sequence GCAACGGACCUUUAAAAAATT against Rkhd1, the z-score is inactive: 1.18.

Turning to “CCACGUCUUUGAGGUACCUTT against 4930413P14Rik”, the z-score was inactive: -0.943.

Consider GAUGGUCAUCCUUCCUUUATT against Olfr341, for which the z-score was inactive: 0.529.

Turning to “CCGGAUUGAAGAGUUGUAUTT against 1110002N22Rik”, the z-score was inactive: 0.245.

For GGUGAAUCGUGUUUCUGGATT against BC021381, the z-score was inactive: -1.11.

With “GGAAGAUACCAAAAUCUUATT against 1700083M11Rik”, the z-score was inactive: 0.295.

Consider GCCCACAUCAGCUAUCGUUTT against Atf2, for which the z-score was inactive: -0.339.

Take GGAUUUUGAACCCAGUUAUTT against Siat9: the z-score is inactive: -1.37.

As for GGUUGGGCAAACCUGUCAATT against Olfr1121, the z-score was inactive: -1.23.

CGAUCUCAGAGGAUAAGUUTT against Nxf3: the z-score is inactive: -2.07.

For “GGAUGAAGAACCACUCAAATT against D1Ertd161e”, the z-score was inactive: -1.22.

Take GGAGAAUAAAACUUCCAGATT against Urod: the z-score was inactive: 0.379.

Regarding GCUUGUGCCAAGCAUUCUUTT against Rdh1, the z-score was inactive: -0.327.

On to GACAAAGAGUCCCUGAACCTT against Emp3, for which the z-score was inactive: -0.458.

Take CCAAUGCCUGUUUAAUAAATT against LOC381813: the z-score was inactive: -0.0637.

Consider “GGGCAUUCUAUUAAACAUGTT against 2410018C17Rik”, for which the z-score was inactive: 2.49.

For GCCCAUAUCUUCUUCACUGTT against Stxbp2, the z-score was inactive: -1.15.

For GGAUGUGGUUCGAGUAUGGTT against Pou5f1, the z-score is inactive: -1.03.

GCAACUUUGUAGCUCCUUCTT against Srebf2: the z-score is inactive: 1.62.

Regarding GACAAUGCGUGCAACGAUATT against Grcc10, the z-score was inactive: 0.381.

CCUCAAUUAUACCAAGAUUTT against Mapre3: the z-score is inactive: 1.25.

As to GAAAAUAGAUAAAAGGACCTT against Defb6, the z-score is inactive: -0.0577.

As to GCGGAUUCAAAACCUUAGUTT against Drp2, the z-score is inactive: -0.525.

As to “GGGCCUCCUGUAAACAUCCTT against D630039A03Rik”, the z-score was inactive: 1.29.

Regarding GGAAGACAUCAAGAUGUAATT against Rp1hl1, the z-score was inactive: -0.66.

Regarding GGACAUGGAGACUCUGAAGTT against Ptov1, the z-score is inactive: -0.39.

Turning to GGGACAAGGCAGAAAUUUUTT against Tcf15, the z-score was inactive: 2.19.

For the sequence CCAUCCAUCUAUCUUCACCTT against Nanos2, the z-score was inactive: 1.39.

In the case of GCCUUACUUCGGAGUGCUATT against Olfr606, the z-score was inactive: -0.998.

Turning to GCUUAGGGUGUUGAAAGGCTT against AI854703, the z-score was inactive: -0.0689.

For the sequence “GGCUGUAGAAGGCUUAUUATT against 6030411K04Rik”, the z-score was inactive: -3.23.

In the case of GGAAAGUUGGACCUUCUGATT against Adamts6, the z-score is inactive: 0.712.

Consider CGGCCUGGUACCAUCUUAUTT against Antxr2, for which the z-score was inactive: 0.39.

Take GGAGCUGUAUGAGAUAGAGTT against Zfp566: the z-score is inactive: 0.261.

For “GGAAGUUGUAGUUUCGUGGTT against 6332401O19Rik”, the z-score is inactive: -0.0227.

With GCACCAGGCCACAAUUAAUTT against Luzp2, the z-score is inactive: 0.294.

On to GCGGACGGAGGAACUAAUUTT against Arhgef19, for which the z-score is inactive: -0.969.

With GCUAUUGAGAAACCACUUATT against Rasef, the z-score is inactive: -1.11.

Turning to GGGAUACAGGACUAAACGATT against Fgf16, the z-score is inactive: 0.812.

Regarding GGAGUCCUCUCUUCACUUCTT against Serpinb9, the z-score was inactive: 0.162.

Take GGAUAUUGUGGUUUUUAGCTT against Pdc: the z-score is inactive: -1.39.

For the sequence GCUGAAUACAGUUGGUGCUTT against Whsc2, the z-score is inactive: 1.77.

GGGACAUGCCUGAAAAAUGTT against Txnl6: the z-score was inactive: -1.49.

On to GGAGAAAGGCAUCUUCAAATT against Spdef, for which the z-score was inactive: 0.861.

Turning to GGACUGUGUGCAACUGAACTT against Camkk1, the z-score is inactive: -1.56.

With CGGAAGACCCUGAGACUAUTT against Doc2g, the z-score is inactive: -0.88.

For the sequence CCACAAUAAUGAGCAGCAGTT against Olfr792, the z-score is inactive: 1.01.

On to “GGGCUCAUUUUCACUGCUUTT against 0610007C21Rik”, for which the z-score was inactive: -0.483.

As for GGCUAGGUAGACCAUAGAGTT against BC034068, the z-score is inactive: 1.07.

On to CCCUCUUGCAGUCAGCUGATT against Rpl41, for which the z-score is inactive: -0.192.

Take “GGUGGACAUGAGAAAGUGUTT against 2010316F05Rik”: the z-score was inactive: -0.763.

Consider CGGAAGUCAAUUUUGAAAATT against Il31ra, for which the z-score was inactive: 0.731.

On to GGAUUCUGCAUGUUUGUACTT against Cds2, for which the z-score is inactive: -1.75.

As for GGUACAUCUUAGAGGCCAATT against Epo, the z-score is inactive: -0.831.

Take “GGUGAAUGAGGACUCUGGGTT against 1700001E16Rik”: the z-score was inactive: 1.21.

As for GGCCUGGACAUCUCUUCUCTT against Taf7, the z-score was inactive: 0.867.

For the sequence GGCGGUCAAUGACCUCAUATT against AU018778, the z-score is inactive: -1.75.

GGAUGAGGAUGGCUAUAAGTT against AI790326: the z-score is inactive: 0.272.

On to “GGACGAAUUUCUUACAGUATT against 4933412H03Rik”, for which the z-score was inactive: -1.61.

Consider CCAAAAACCACAGUCCACCTT against Dnajb12, for which the z-score was inactive: 1.38.
